No constants are given. Whether binding was seen depends on the method and setting. In cells and extracts the contact can be indirect. Some binding calls cover weakened binding; strength is not graded here. Where a sequence is shown, tags or fusion partners need not be part of it.

By UniProt entry, the sequences of proteins in these tests, tags left out. Where a name states a change or a piece, a line headed by the entry shows the natural chain unless it says otherwise.
UniProt Q62120: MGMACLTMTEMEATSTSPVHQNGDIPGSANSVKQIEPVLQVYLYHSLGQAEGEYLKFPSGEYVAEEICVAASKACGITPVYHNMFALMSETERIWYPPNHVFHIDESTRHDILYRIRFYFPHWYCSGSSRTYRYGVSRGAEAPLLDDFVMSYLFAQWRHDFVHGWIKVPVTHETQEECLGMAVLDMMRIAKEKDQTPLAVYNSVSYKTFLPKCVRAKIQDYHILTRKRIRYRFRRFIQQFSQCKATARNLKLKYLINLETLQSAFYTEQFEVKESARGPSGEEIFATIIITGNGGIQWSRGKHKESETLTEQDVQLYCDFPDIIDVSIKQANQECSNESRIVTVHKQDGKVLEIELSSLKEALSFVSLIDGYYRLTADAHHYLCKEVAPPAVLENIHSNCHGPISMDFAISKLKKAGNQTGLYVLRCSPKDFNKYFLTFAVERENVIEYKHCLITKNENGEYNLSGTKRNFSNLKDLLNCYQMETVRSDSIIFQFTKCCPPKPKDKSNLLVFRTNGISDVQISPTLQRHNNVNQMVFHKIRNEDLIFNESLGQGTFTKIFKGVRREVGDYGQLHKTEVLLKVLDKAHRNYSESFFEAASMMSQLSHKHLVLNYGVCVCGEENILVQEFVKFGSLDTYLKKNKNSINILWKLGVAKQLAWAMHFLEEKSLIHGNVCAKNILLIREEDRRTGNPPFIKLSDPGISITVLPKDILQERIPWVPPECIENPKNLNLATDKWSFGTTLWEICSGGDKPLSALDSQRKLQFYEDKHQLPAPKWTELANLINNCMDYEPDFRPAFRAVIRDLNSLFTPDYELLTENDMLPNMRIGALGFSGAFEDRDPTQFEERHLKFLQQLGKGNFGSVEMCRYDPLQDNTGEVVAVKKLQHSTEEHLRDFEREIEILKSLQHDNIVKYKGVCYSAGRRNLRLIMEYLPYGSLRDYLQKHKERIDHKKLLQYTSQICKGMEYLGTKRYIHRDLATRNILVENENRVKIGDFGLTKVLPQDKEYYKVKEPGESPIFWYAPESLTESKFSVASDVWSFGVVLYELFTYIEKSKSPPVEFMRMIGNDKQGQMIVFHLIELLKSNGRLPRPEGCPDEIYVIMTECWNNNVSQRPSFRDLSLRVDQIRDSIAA

Test [1] has as its target T1, GST fusion protein containing the full length murine EPOR cytoplasmic domain (amino acids 257-483) (murine) (UniProt P14753).
T1 sequence (looked up): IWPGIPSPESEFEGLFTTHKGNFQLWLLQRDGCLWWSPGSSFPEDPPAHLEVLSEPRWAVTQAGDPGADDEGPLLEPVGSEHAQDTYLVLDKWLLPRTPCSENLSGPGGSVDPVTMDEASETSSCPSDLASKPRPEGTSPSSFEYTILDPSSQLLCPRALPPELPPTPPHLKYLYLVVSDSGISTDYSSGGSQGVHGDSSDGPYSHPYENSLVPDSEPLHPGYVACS
In words: pull-down from cell extracts on GST fusion protein beads, Jak2 immunoblot.

Test [2] deals with T1, GST fusion protein containing the full length murine EPOR cytoplasmic domain (amino acids 257-483) (murine). The test can be described thus: pull-down from extracts of unstimulated or EPO stimulated DA3(EPOR) cells on GST-EPOR beads, Jak2 immunoblot. A general note: A western blot detects proteins with antibodies after separation by electrophoresis.

With “murine Jak2 protein tyrosine kinase (from UniProt Q62120 1-1120) (enzyme)”, the binding result in test [1] and in test [2] was “binds” in each case.
